Data from article doi:10.1101/2022.08.08.503162.

Amino acid sequences for entries named in this document (tags omitted). A change or cut given only in a name is not applied to a line headed by its entry.
UniProt P02647: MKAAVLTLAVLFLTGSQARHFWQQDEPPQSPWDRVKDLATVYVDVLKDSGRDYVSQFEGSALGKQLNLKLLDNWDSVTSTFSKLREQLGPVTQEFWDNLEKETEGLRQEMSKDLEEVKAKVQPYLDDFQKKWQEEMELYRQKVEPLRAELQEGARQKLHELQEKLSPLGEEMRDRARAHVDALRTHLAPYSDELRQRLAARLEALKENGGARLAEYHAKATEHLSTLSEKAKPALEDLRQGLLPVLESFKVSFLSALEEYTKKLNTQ

Target: T1, GFP-SR-B1 fusion protein overexpressed in HeLa cells (UniProt Q8WTV0)
T1 sequence: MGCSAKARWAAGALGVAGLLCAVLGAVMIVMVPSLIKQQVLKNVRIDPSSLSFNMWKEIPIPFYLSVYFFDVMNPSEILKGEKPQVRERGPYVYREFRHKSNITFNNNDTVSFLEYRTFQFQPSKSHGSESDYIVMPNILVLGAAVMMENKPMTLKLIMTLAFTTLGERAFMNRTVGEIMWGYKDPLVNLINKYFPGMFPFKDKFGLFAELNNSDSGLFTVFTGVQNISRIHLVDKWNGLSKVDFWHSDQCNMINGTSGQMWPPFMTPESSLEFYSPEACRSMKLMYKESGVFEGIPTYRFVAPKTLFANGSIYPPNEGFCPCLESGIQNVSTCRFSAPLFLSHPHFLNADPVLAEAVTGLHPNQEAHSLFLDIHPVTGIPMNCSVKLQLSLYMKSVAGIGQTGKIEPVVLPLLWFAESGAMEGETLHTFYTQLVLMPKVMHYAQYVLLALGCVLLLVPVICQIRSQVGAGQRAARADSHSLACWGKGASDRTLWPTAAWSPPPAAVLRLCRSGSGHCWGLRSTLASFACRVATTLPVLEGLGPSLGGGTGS
Assay: pull-down

recombinant wild-type apolipoprotein A1 (APOA1-WT), from ClearColi (from UniProt P02647)
binding: binds

These are yes or no findings as the source states them, for the method shown. Binding seen in cells or lysates may run through a third protein. A result given as binding can be weak or reduced; the word gives no strength. Sequences can lack the tags named with a protein.
